PubChem BioAssay AID504808 | Drosophila RNAi Screening Center, 2011
Purpose: 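Chromatin factors that keep E2F targets switched off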 (primary screen). System: Drosophila S2 cells. Reagent: long dsRNA against Drosophila genes. Read-out: 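Dual luciferase plate measurements; E2F-specific signal taken as firefly over Renilla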. Reading the numbers: E2F firefly: higher = more E2F reporter activity; Renilla normaliser: higher = more normaliser reporter signal. Active means: 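Called active if the normalised E2F reporter went up by over 50%; the cutoff is arbitrary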.
The screen tested about 21,000 reagents; shown is a random part of those with a known target gene and a result. Of all reagents, 18 (0.084%) are marked active. 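Raw counts without plate normalisation, one of two replicates; the ratio scores behind the calls were not deposited.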 Names joined by + are all predicted targets of the reagent. Not stated in the record: the amount of reagent, the time to read-out.

| target gene | dsRNA | E2F firefly, rep 1 | Renilla normaliser, rep 1 | activity call |
| --- | --- | --- | --- | --- |
| CG13501 | DRSC04146 | 1.23e5 | 4323 | inactive |
| OS9 (Olfactory-specific 9) | DRSC02700 | 94994 | 4243 | inactive |
| CG9308 | DRSC04539 | 1.08e5 | 4332 | inactive |
| Mfap1 (Microfibril-associated protein 1) | DRSC08154 | 52323 | 3685 | inactive |
| CG15841 (retired record) + Acp33A | DRSC01859 | 1.60e5 | 5574 | inactive |
| CG4815 | DRSC15653 | 1.28e5 | 6083 | inactive |
| CG14743 | DRSC06479 | 1.54e5 | 5167 | inactive |
| Ass + CG31286 | DRSC12493 | 1.33e5 | 5984 | inactive |
| CG33308 | DRSC01419 | 1.22e5 | 6304 | inactive |
| CG14356 | DRSC14819 | 1.08e5 | 5923 | inactive |
| CG5823 | DRSC15881 | 53440 | 3338 | inactive |
| CG11964 | DRSC14447 | 68875 | 3830 | inactive |
| Acbp3 (Acyl-CoA binding protein 3) | DRSC11022 | 95708 | 3994 | inactive |
| CG4459 | DRSC15582 | 1.45e5 | 8116 | inactive |
| CG2680 | DRSC18466 | 1.21e5 | 5591 | inactive |
| RhoGEF4 (Rho guanine nucleotide exchange factor 4) | DRSC11011 | 70250 | 3935 | inactive |
| Cpr64Ac (Cuticular protein 64Ac) | DRSC08462 | 1.10e5 | 4139 | inactive |
| SNF4Agamma (SNF4/AMP-activated protein kinase gamma subunit) | DRSC13461 | 77410 | 2820 | inactive |
| SNF4Agamma (SNF4/AMP-activated protein kinase gamma subunit) | DRSC13463 | 71638 | 2678 | inactive |
| SNF4Agamma (SNF4/AMP-activated protein kinase gamma subunit) | DRSC15879 | 1.19e5 | 7006 | inactive |
| SNF4Agamma (SNF4/AMP-activated protein kinase gamma subunit) | DRSC16847 | 72095 | 3098 | inactive |
| BigH1 (Histone H1 variant BigH1) | DRSC15491 | 77484 | 3973 | inactive |
| CG6785 | DRSC02993 | 66558 | 3551 | inactive |
| CG17824 (retired record) | DRSC10288 | 1.44e5 | 7339 | inactive |
| CG11333 | DRSC14301 | 57026 | 3684 | inactive |
| CG5509 | DRSC15822 | 1.47e5 | 6563 | inactive |
| CG13004 | DRSC19523 | 1.65e5 | 6332 | inactive |
| AANATL4 (Arylalkylamine N-acetyltransferase-like 4) | DRSC06774 | 1.57e5 | 5083 | inactive |
| CG15073 | DRSC06506 | 1.44e5 | 5240 | inactive |
| CG5334 | DRSC19941 | 1.66e5 | 6171 | inactive |
| CG3078 | DRSC18531 | 1563 | 908 | inactive |
| mRpL28 (mitochondrial ribosomal protein L28) | DRSC02724 | 1.38e5 | 5022 | inactive |
| Argl + CG9515 | DRSC03243 | 80898 | 3459 | inactive |
| Argl + CG9515 | DRSC03245 | 1.47e5 | 4946 | inactive |
| Nepl13 (Neprilysin-like 13) | DRSC15632 | 1.19e5 | 6592 | inactive |
| mRF1 (mitochondrial translation release factor 1) | DRSC02880 | 97903 | 3321 | inactive |
| CG3939 | DRSC18498 | 1.30e5 | 7144 | inactive |
| nmdyn-D6 | DRSC20355 | 2.42e5 | 6583 | inactive |
| CG32718 | DRSC17538 | 85405 | 2524 | inactive |
| Pdss2 (Decaprenyl diphosphate synthase subunit 2) | DRSC11625 | 82926 | 3285 | inactive |
| CG42712 (retired record) | DRSC01038 | 1.36e5 | 5922 | inactive |
| CG2839 | DRSC00544 | 1.64e5 | 5853 | inactive |
| Trs20 (TRAPP subunit 20) | DRSC10489 | 1.48e5 | 7617 | inactive |
| CG1910 | DRSC15400 | 1780 | 916 | inactive |
| Oseg2 (Outer segment 2) | DRSC08343 | 1.03e5 | 4584 | inactive |
| app (approximated) | DRSC09159 | 1.39e5 | 5447 | inactive |
| app (approximated) | DRSC10246 | 1.20e5 | 6600 | inactive |
| app (approximated) | DRSC10526 | 93466 | 4297 | inactive |
| CG14551 | DRSC14894 | 1.02e5 | 5537 | inactive |
| Ctr1C (Copper transporter 1C) | DRSC15089 | 1.40e5 | 7998 | inactive |
| CG9822 | DRSC04568 | 97101 | 4346 | inactive |
| CG1628 | DRSC18109 | 6738 | 760 | inactive |
| CG17633 | DRSC02631 | 1.39e5 | 5158 | inactive |
| CG4741 | DRSC04485 | 1.09e5 | 4283 | inactive |
| CG42514 | DRSC10428 | 87252 | 4431 | inactive |
| Elk (Eag-like K[+] channel) | DRSC07608 | 82213 | 3165 | inactive |
| CG12868 | DRSC06207 | 1.05e5 | 4178 | inactive |
| Jabba | DRSC06521 | 80484 | 3790 | inactive |
| Wnt10 (Wnt oncogene analog 10) | DRSC00990 | 1.45e5 | 3370 | inactive |
| Wnt10 (Wnt oncogene analog 10) | DRSC02797 | 1.49e5 | 5015 | inactive |
| CG17168 | DRSC20904 | 1.16e5 | 6968 | inactive |
| Pits (Protein interacting with Ttk69 and Sin3A) | DRSC19385 | 1.34e5 | 8698 | inactive |
| Pits (Protein interacting with Ttk69 and Sin3A) | DRSC19812 | 1.39e5 | 6801 | inactive |
| ry (rosy) | DRSC17048 | 79588 | 3492 | inactive |
| S-Lap4 (Sperm-Leucylaminopeptidase 4) | DRSC10957 | 1.19e5 | 6264 | inactive |
| gdrd (goddard) | DRSC10020 | 1.62e5 | 9481 | inactive |
| Prp8 (pre-mRNA processing factor 8) | DRSC07293 | 2031 | 189 | inactive |
| Sr-CIV (Scavenger receptor class C, type IV) | DRSC00575 | 1.39e5 | 5013 | inactive |
| Agps (Alkylglycerone phosphate synthase) | DRSC05984 | 92547 | 4439 | inactive |
| CG12659 | DRSC17862 | 99244 | 4942 | inactive |
| RhoGAP68F (Rho GTPase activating protein at 68F) | DRSC10717 | 70435 | 3283 | inactive |
| Usp12-46 (Ubiquitin-specific protease 12/46) | DRSC16175 | 1.21e5 | 6043 | inactive |
| CG31997 | DRSC17105 | 80568 | 2123 | inactive |
| Gr68a (Gustatory receptor 68a) | DRSC10803 | 1.35e5 | 7366 | inactive |
| Cyp6a2 (Cytochrome P450 6a2) | DRSC05014 | 1.03e5 | 3595 | inactive |
| Adss (Adenylosuccinate synthetase) | DRSC14162 | 68645 | 4141 | inactive |
| RpS2 (Ribosomal protein S2) | DRSC03614 | 53326 | 249 | inactive |
| alph (alphabet) | DRSC15398 | 1326 | 920 | inactive |
| CG9555 | DRSC03264 | 1.54e5 | 5218 | inactive |
| brv3 (brivido-3) | DRSC18657 | 1.07e5 | 5531 | inactive |
| nompA (no mechanoreceptor potential A) | DRSC06329 | 92393 | 4372 | inactive |
| CG14400 | DRSC02384 | 99590 | 4242 | inactive |
| Pka-R1 (Protein kinase, cAMP-dependent, regulatory subunit type 1) | DRSC11674 | 66676 | 3240 | inactive |
| Pka-R1 (Protein kinase, cAMP-dependent, regulatory subunit type 1) | DRSC11875 | 69755 | 3282 | inactive |
| CG12147 | DRSC12192 | 1.30e5 | 6358 | inactive |
| CG10265 | DRSC05986 | 3264 | 193 | inactive |
| hoip (hoi-polloi) | DRSC03546 | 64783 | 159 | inactive |
| CG18536 | DRSC06763 | 1.54e5 | 4875 | inactive |
| CG17816 | DRSC15277 | 1.34e5 | 5512 | inactive |
| CG9743 | DRSC16552 | 1.20e5 | 6148 | inactive |
| Ing3 (Inhibitor of growth family, member 3) | DRSC20002 | 1.72e5 | 3873 | inactive |
| iav (inactive) | DRSC18363 | 94312 | 5059 | inactive |
| CG15506 | DRSC15047 | 1.32e5 | 6281 | inactive |
| Vtld + CG42529 | DRSC10102 | 1.38e5 | 8395 | inactive |
| CG13840 | DRSC14690 | 1.48e5 | 5365 | inactive |
| Ask1 (Apoptotic signal-regulating kinase 1) | DRSC16789 | 1.47e5 | 7268 | inactive |
| CG5665 | DRSC11783 | 1.30e5 | 5668 | inactive |
| Spn42Da (Serpin 42Da) | DRSC05025 | 1.49e5 | 5103 | inactive |
| CG40006 | DRSC03787 | 1.24e5 | 4558 | inactive |
| CG40006 | DRSC03809 | 1.37e5 | 4671 | inactive |
| CG40006 | DRSC03814 | 1.14e5 | 4221 | inactive |
| CG40006 | DRSC03817 | 1.20e5 | 4505 | inactive |
| CG7912 | DRSC16343 | 1.11e5 | 6113 | inactive |
| GCS2alpha (Glucosidase 2 alpha subunit) | DRSC21036 | 1.39e5 | 7032 | inactive |
| SP2353 | DRSC07545 | 1.42e5 | 4666 | inactive |
| CG31345 | DRSC14193 | 1.19e5 | 5484 | inactive |
| CG31345 | DRSC14847 | 1.28e5 | 6013 | inactive |

An excerpt from above, showing only “Renilla normaliser, rep 1”:
Pka-R1 (Protein kinase, cAMP-dependent, regulatory subunit type 1) [DRSC11674] = 3240
Pka-R1 (Protein kinase, cAMP-dependent, regulatory subunit type 1) [DRSC11875] = 3282
CG12147 [DRSC12192] = 6358
CG10265 [DRSC05986] = 193
hoip (hoi-polloi) [DRSC03546] = 159
CG18536 [DRSC06763] = 4875
CG17816 [DRSC15277] = 5512
CG9743 [DRSC16552] = 6148
Ing3 (Inhibitor of growth family, member 3) [DRSC20002] = 3873
iav (inactive) [DRSC18363] = 5059
CG15506 [DRSC15047] = 6281
Vtld + CG42529 [DRSC10102] = 8395
CG13840 [DRSC14690] = 5365
Ask1 (Apoptotic signal-regulating kinase 1) [DRSC16789] = 7268
